# This is one part of the list.
# B1: Ovorubin (Pomacea canaliculata), J7I2T6 (protein)
# chain: MFVATSLLLAIATLVVRASPHNYLIMDIEPPKSVSERDILNLLSPLQVKHSFRVTGSTRLLIVIRLDAQSYEKLDEITVPGKVEVIPAVNMADTMERCGVSWPRVELTDDNVTLFESESTLTDVTKEQLKAMLIGYGEHMSGLLQAHRFEYYQAAGATPHRHFVFVNSVPDEIEVFGREGVDIWGGPGEFVVKPQYVTRI
# Legend:
# Experiment in all cases: glycan array binding signal (z-score within array); higher = stronger binding
# Conditions in all cases: glycan notation: IUPAC condensed, linker removed
# Glc(b1-4)Glc = molecular target: Glc(b1-4)Glc
# Procedure, shortened: (§1)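 Glycan array binding is given as a within-array Z-score, which can be read as non-binding when negative. The arrays, 3228 of them, came from the Consortium for Functional Glycomics database and were retained only where the protein sequence was available. Z-scores were averaged across arrays of the same protein sequence at different concentrations or buffers and across linkers.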
# Glc(b1-6)Glc = molecular target: Glc(b1-6)Glc
# Procedure, shortened: as §1
# GlcA(b1-3)Gal = molecular target: GlcA(b1-3)Gal
# Procedure, shortened: as §1
# GlcA(b1-3)GlcNAc = molecular target: GlcA(b1-3)GlcNAc
# Procedure, shortened: as §1
# GlcA(b1-6)Gal = molecular target: GlcA(b1-6)Gal
# Procedure, shortened: as §1
# [1] = molecular target: GlcA3S(b1-3)Gal(b1-4)GlcNAc(b1-2)Man
# Procedure, shortened: as §1
# [2] = molecular target: GlcA3S(b1-3)Gal(b1-4)GlcNAc(b1-3)Gal(b1-4)Glc
# Procedure, shortened: as §1
# [3] = molecular target: GlcNAc(a1-3)Gal(b1-4)GlcNAc
# Procedure, shortened: as §1
# [4] = molecular target: GlcNAc(a1-4)Gal(b1-3)GlcNAc
# Procedure, shortened: as §1
# [5] = molecular target: GlcNAc(a1-4)Gal(b1-4)GalNAc
# Procedure, shortened: as §1
# [6] = molecular target: GlcNAc(a1-4)Gal(b1-4)GlcNAc
# Procedure, shortened: as §1
# [7] = molecular target: GlcNAc(a1-4)Gal(b1-4)GlcNAc(b1-3)Gal(b1-4)Glc
# Procedure, shortened: as §1
# [8] = molecular target: GlcNAc(a1-4)Gal(b1-4)GlcNAc(b1-3)Gal(b1-4)GlcNAc
# Procedure, shortened: as §1
# [9] = molecular target: GlcNAc(a1-4)Gal(b1-4)GlcNAc(b1-3)Gal(b1-4)GlcNAc(b1-3)Gal(b1-4)GlcNAc
# Procedure, shortened: as §1
# [10] = molecular target: GlcNAc(a1-4)Gal(b1-4)GlcNAc(b1-3)Gal(b1-4)[Fuc(a1-3)]GlcNAc(b1-3)Gal(b1-4)[Fuc(a1-3)]GlcNAc
# Procedure, shortened: as §1
# [11] = molecular target: GlcNAc(a1-6)Gal(b1-4)GlcNAc
# Procedure, shortened: as §1
# [12] = molecular target: GlcNAc(b1-2)Gal(b1-3)GalNAc
# Procedure, shortened: as §1
# [13] = molecular target: GlcNAc(b1-2)Man(a1-3)[GlcNAc(b1-2)Man(a1-6)]Man(b1-4)GlcNAc(b1-4)GlcNAc
# Procedure, shortened: as §1
# [14] = molecular target: GlcNAc(b1-2)Man(a1-3)[GlcNAc(b1-2)Man(a1-6)]Man(b1-4)GlcNAc(b1-4)[Fuc(a1-6)]GlcNAc
# Procedure, shortened: as §1
# [15] = molecular target: GlcNAc(b1-2)Man(a1-3)[GlcNAc(b1-4)][GlcNAc(b1-2)Man(a1-6)]Man(b1-4)GlcNAc(b1-4)GlcNAc
# Procedure, shortened: as §1
# [16] = molecular target: GlcNAc(b1-2)Man(a1-3)[GlcNAc(b1-4)][GlcNAc(b1-2)Man(a1-6)]Man(b1-4)GlcNAc(b1-4)[Fuc(a1-6)]GlcNAc
# Procedure, shortened: as §1
# [17] = molecular target: GlcNAc(b1-2)[GlcNAc(b1-4)]Man(a1-3)[GlcNAc(b1-2)Man(a1-6)]Man(b1-4)GlcNAc(b1-4)GlcNAc
# Procedure, shortened: as §1
# [18] = molecular target: GlcNAc(b1-2)[GlcNAc(b1-4)]Man(a1-3)[GlcNAc(b1-4)][GlcNAc(b1-2)Man(a1-6)]Man(b1-4)GlcNAc(b1-4)GlcNAc
# Procedure, shortened: as §1
# [19] = molecular target: GlcNAc(b1-2)[GlcNAc(b1-4)]Man(a1-3)[GlcNAc(b1-4)][GlcNAc(b1-2)[GlcNAc(b1-6)]Man(a1-6)]Man(b1-4)GlcNAc(b1-4)GlcNAc
# Procedure, shortened: as §1
# [20] = molecular target: GlcNAc(b1-2)[GlcNAc(b1-4)]Man(a1-3)[GlcNAc(b1-4)][GlcNAc(b1-2)[GlcNAc(b1-6)]Man(a1-6)]Man(b1-4)GlcNAc(b1-4)[Fuc(a1-6)]GlcNAc
# Procedure, shortened: as §1
# [21] = molecular target: GlcNAc(b1-2)[GlcNAc(b1-6)]Man(a1-6)[GlcNAc(b1-2)Man(a1-3)]Man(b1-4)GlcNAc(b1-4)GlcNAc
# Procedure, shortened: as §1
# [22] = molecular target: GlcNAc(b1-2)[GlcNAc(b1-6)]Man(a1-6)[GlcNAc(b1-2)Man(a1-3)]Man(b1-4)GlcNAc(b1-4)[Fuc(a1-6)]GlcNAc
# Procedure, shortened: as §1
# [23] = molecular target: GlcNAc(b1-2)[GlcNAc(b1-6)]Man(a1-6)[GlcNAc(b1-4)][GlcNAc(b1-2)Man(a1-3)]Man(b1-4)GlcNAc(b1-4)GlcNAc
# Procedure, shortened: as §1
# GlcNAc(b1-3)Fuc = molecular target: GlcNAc(b1-3)Fuc
# Procedure, shortened: as §1
# GlcNAc(b1-3)Gal = molecular target: GlcNAc(b1-3)Gal
# Procedure, shortened: as §1
# [24] = molecular target: GlcNAc(b1-3)Gal(b1-3)GalNAc
# Procedure, shortened: as §1
# GlcNAc(b1-3)Gal(b1-4)Glc = molecular target: GlcNAc(b1-3)Gal(b1-4)Glc
# Procedure, shortened: as §1
# [25] = molecular target: GlcNAc(b1-3)Gal(b1-4)GlcNAc
# Procedure, shortened: as §1
# [26] = molecular target: GlcNAc(b1-3)Gal(b1-4)GlcNAc(b1-2)Man(a1-3)[GlcNAc(b1-3)Gal(b1-4)GlcNAc(b1-2)Man(a1-6)]Man(b1-4)GlcNAc(b1-4)GlcNAc
# Procedure, shortened: as §1
# [27] = molecular target: GlcNAc(b1-3)Gal(b1-4)GlcNAc(b1-2)Man(a1-3)[GlcNAc(b1-3)Gal(b1-4)GlcNAc(b1-2)Man(a1-6)]Man(b1-4)GlcNAc(b1-4)[Fuc(a1-6)]GlcNAc
# Procedure, shortened: as §1
# [28] = molecular target: GlcNAc(b1-3)Gal(b1-4)GlcNAc(b1-2)[GlcNAc(b1-3)Gal(b1-4)GlcNAc(b1-6)]Man(a1-6)[GlcNAc(b1-3)Gal(b1-4)GlcNAc(b1-2)Man(a1-3)]Man(b1-4)GlcNAc(b1-4)GlcNAc
# Procedure, shortened: as §1
# [29] = molecular target: GlcNAc(b1-3)Gal(b1-4)GlcNAc(b1-3)Gal(b1-4)GlcNAc
# Procedure, shortened: as §1
# [30] = molecular target: GlcNAc(b1-3)Gal(b1-4)GlcNAc(b1-3)Gal(b1-4)GlcNAc(b1-2)Man(a1-3)[GlcNAc(b1-3)Gal(b1-4)GlcNAc(b1-3)Gal(b1-4)GlcNAc(b1-2)Man(a1-6)]Man(b1-4)GlcNAc(b1-4)GlcNAc
# Procedure, shortened: as §1
# [31] = molecular target: GlcNAc(b1-3)Gal(b1-4)GlcNAc(b1-3)Gal(b1-4)GlcNAc(b1-2)Man(a1-3)[GlcNAc(b1-3)Gal(b1-4)GlcNAc(b1-3)Gal(b1-4)GlcNAc(b1-2)Man(a1-6)]Man(b1-4)GlcNAc(b1-4)[Fuc(a1-6)]GlcNAc
# Procedure, shortened: as §1
# [32] = molecular target: GlcNAc(b1-3)Gal(b1-4)GlcNAc(b1-3)Gal(b1-4)GlcNAc(b1-2)[GlcNAc(b1-3)Gal(b1-4)GlcNAc(b1-3)Gal(b1-4)GlcNAc(b1-6)]Man(a1-6)[GlcNAc(b1-3)Gal(b1-4)GlcNAc(b1-3)Gal(b1-4)GlcNAc(b1-2)Man(a1-3)]Man(b1-4)GlcNAc(b1-4)[Fuc(a1-6)]GlcNAc
# Procedure, shortened: as §1
# [33] = molecular target: GlcNAc(b1-3)Gal(b1-4)GlcNAc(b1-3)Gal(b1-4)GlcNAc(b1-3)Gal(b1-4)GlcNAc(b1-2)Man(a1-3)[GlcNAc(b1-3)Gal(b1-4)GlcNAc(b1-3)Gal(b1-4)GlcNAc(b1-3)Gal(b1-4)GlcNAc(b1-2)Man(a1-6)]Man(b1-4)GlcNAc(b1-4)GlcNAc
# Procedure, shortened: as §1
# [34] = molecular target: GlcNAc(b1-3)Gal(b1-4)GlcNAc(b1-3)Gal(b1-4)GlcNAc(b1-3)Gal(b1-4)GlcNAc(b1-2)Man(a1-3)[GlcNAc(b1-3)Gal(b1-4)GlcNAc(b1-3)Gal(b1-4)GlcNAc(b1-3)Gal(b1-4)GlcNAc(b1-2)Man(a1-6)]Man(b1-4)GlcNAc(b1-4)[Fuc(a1-6)]GlcNAc
# Procedure, shortened: as §1
# [35] = molecular target: GlcNAc(b1-3)Gal(b1-4)GlcNAc(b1-3)Gal(b1-4)GlcNAc(b1-3)Gal(b1-4)GlcNAc(b1-2)[GlcNAc(b1-3)Gal(b1-4)GlcNAc(b1-3)Gal(b1-4)GlcNAc(b1-3)Gal(b1-4)GlcNAc(b1-6)]Man(a1-6)[GlcNAc(b1-3)Gal(b1-4)GlcNAc(b1-3)Gal(b1-4)GlcNAc(b1-3)Gal(b1-4)GlcNAc(b1-2)Man(a1-3)]Man(b1-4)GlcNAc(b1-4)[Fuc(a1-6)]GlcNAc
# Procedure, shortened: as §1
# [36] = molecular target: GlcNAc(b1-3)Gal(b1-4)GlcNAc(b1-3)Gal(b1-4)GlcNAc(b1-3)Gal(b1-4)GlcNAc(b1-3)Gal(b1-4)GlcNAc(b1-2)Man(a1-3)[GlcNAc(b1-3)Gal(b1-4)GlcNAc(b1-3)Gal(b1-4)GlcNAc(b1-3)Gal(b1-4)GlcNAc(b1-3)Gal(b1-4)GlcNAc(b1-2)Man(a1-6)]Man(b1-4)GlcNAc(b1-4)GlcNAc
# Procedure, shortened: as §1
# [37] = molecular target: GlcNAc(b1-3)Gal(b1-4)GlcNAc(b1-3)Gal(b1-4)GlcNAc(b1-3)Gal(b1-4)GlcNAc(b1-3)Gal(b1-4)GlcNAc(b1-2)Man(a1-3)[GlcNAc(b1-3)Gal(b1-4)GlcNAc(b1-3)Gal(b1-4)GlcNAc(b1-3)Gal(b1-4)GlcNAc(b1-3)Gal(b1-4)GlcNAc(b1-2)Man(a1-6)]Man(b1-4)GlcNAc(b1-4)[Fuc(a1-6)]GlcNAc
# Procedure, shortened: as §1
binder,measurement,setting,value
B1,glycan array binding signal (z-score),Glc(b1-4)Glc,-0.473
same,glycan array binding signal (z-score),Glc(b1-6)Glc,-0.801
same,glycan array binding signal (z-score),GlcA(b1-3)Gal,-0.128
same,glycan array binding signal (z-score),GlcA(b1-3)GlcNAc,-0.443
same,glycan array binding signal (z-score),GlcA(b1-6)Gal,-0.181
same,glycan array binding signal (z-score),[1],0.354
same,glycan array binding signal (z-score),[2],0.189
same,glycan array binding signal (z-score),[3],-0.682
same,glycan array binding signal (z-score),[4],-0.515
same,glycan array binding signal (z-score),[5],0.125
same,glycan array binding signal (z-score),[6],-0.551
same,glycan array binding signal (z-score),[7],-0.52
same,glycan array binding signal (z-score),[8],-0.55
same,glycan array binding signal (z-score),[9],-0.555
same,glycan array binding signal (z-score),[10],0.026
same,glycan array binding signal (z-score),[11],-0.021
same,glycan array binding signal (z-score),[12],-0.27
same,glycan array binding signal (z-score),[13],-0.394
same,glycan array binding signal (z-score),[14],-0.475
same,glycan array binding signal (z-score),[15],0.341
same,glycan array binding signal (z-score),[16],-0.306
same,glycan array binding signal (z-score),[17],-0.409
same,glycan array binding signal (z-score),[18],-0.909
same,glycan array binding signal (z-score),[19],-0.864
same,glycan array binding signal (z-score),[20],-0.233
same,glycan array binding signal (z-score),[21],0.175
same,glycan array binding signal (z-score),[22],0.695
same,glycan array binding signal (z-score),[23],-0.795
same,glycan array binding signal (z-score),GlcNAc(b1-3)Fuc,-0.308
same,glycan array binding signal (z-score),GlcNAc(b1-3)Gal,-0.617
same,glycan array binding signal (z-score),[24],0.167
same,glycan array binding signal (z-score),GlcNAc(b1-3)Gal(b1-4)Glc,0.458
same,glycan array binding signal (z-score),[25],-0.34
same,glycan array binding signal (z-score),[26],-0.39
same,glycan array binding signal (z-score),[27],0.415
same,glycan array binding signal (z-score),[28],0.637
same,glycan array binding signal (z-score),[29],-0.391
same,glycan array binding signal (z-score),[30],-0.167
same,glycan array binding signal (z-score),[31],2.03
same,glycan array binding signal (z-score),[32],-0.363
same,glycan array binding signal (z-score),[33],-0.748
same,glycan array binding signal (z-score),[34],0.384
same,glycan array binding signal (z-score),[35],0.298
same,glycan array binding signal (z-score),[36],0.683
same,glycan array binding signal (z-score),[37],-0.24

# 2 neighbouring entries out of the list so far, quoted:
binder,measurement,setting,value
B1,glycan array binding signal (z-score),[1],0.354
same,glycan array binding signal (z-score),[2],0.189
